# Assay results published in PubChem BioAssay AID504842 (National Center for Advancing Translational Sciences (NCATS), 2011).
# The whole screen tested about 330,000 compounds, of which about 100 (0.03%) were called active. The shares of active, inactive and inconclusive entries below differ from those in the screen. The call rests on the fitted dose curve; in most records, active means well fitted inhibition curve with a large enough effect; inconclusive means small, poorly fitted or top-dose-only effect; inactive means flat fitted curve, though single readings scatter. Potencies of inconclusive entries are doubtful fits and often do not repeat.
# System: Chaperonin Mm-Cpn (Methanococcus maripaludis)
# Experiment: Inhibitors of TCP-1 ring complex (TRiC) of Methanococcus maripaludis (MmCpn): qHTS; further: nearly all actives have a fitted effect of over 80% in size;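 on Potency: enzyme at 25 nM with ATP substrate at 10 µM during the reaction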
# Settings: purified Mm-Cpn ATPase, ADP Transcreener TR-FRET
# Summary of the method: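 Reaction buffer contained 30 mM Tris pH 7.4, 100 mM KCl, 5 mM MgCl2 and 1 mM DTT. Mm-CPN (25 nM final) hydrolysed 10 uM ATP over 30 min at 37°C; ADP was read by HTRF.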
# Potency means the concentration at half of the fitted maximal effect.
row,SMILES,Potency
1,CN(C(=O)CC(NC(=O)c1ccccc1)(c1ccccc1)c1ccccc1)c1ccccc1,"inconclusive: 79.4 µM [inhibitor, single point]"
2,O=C(COC(=O)c1cc(-c2cccc3ccccc23)nc2ccccc12)NC1CCS(=O)(=O)C1 (stereo not drawn),"inconclusive: 3160 µM [inhibitor, partial curve, poor fit]"
3,Cc1noc(C)c1COc1ccccc1C(=O)N(C)CC(=O)Nc1ccc(Cl)c(Cl)c1,inactive
4,N#C/C(=C\c1cn(-c2ccccc2)nc1-c1cc2ccccc2o1)c1nc2ccccc2[nH]1,inactive
5,COc1ccccc1CN(C)CC(=O)Nc1cccc(S(=O)(=O)N2CCCC2)c1,inactive
6,N#Cc1ccsc1NC(=O)c1cnccn1,inactive
7,C=CCn1c(O)c(CN2CCCCC2)c(C)c(C#N)c1=O,"inconclusive: 100 µM [inhibitor, single point]"
8,COc1ccc(OC)c(C(=O)CSc2nnc(Cc3cccs3)n2CCc2ccccc2)c1,"inconclusive: 112 µM [inhibitor, partial curve, poor fit]"
9,CNC(=S)N1CCc2cc(OC)c(OC)cc2C1COc1ccc(F)cc1 (stereo not drawn),"inconclusive: 178 µM [inhibitor, partial curve, poor fit]"
10,CCn1nnnc1Oc1ccc(Cl)cc1,"inconclusive: 17.8 µM [inhibitor, single point]"
11,Cc1c(O)ccc2c(CN3CCN(Cc4ccccc4)CC3)cc(=O)oc12,inactive
12,Nc1ncnc2c1ncn2[C@@H]1O[C@H](CN2CCCS2(=O)=O)[C@@H](O)[C@H]1O,"inconclusive: 89.1 µM [inhibitor, single point]"
13,COc1ccccc1C(=O)NCCC(=O)NCC(c1ccco1)N1CCCCC1 (stereo not drawn),"inconclusive: 100 µM [inhibitor, single point]"
14,CN1/C(=C\C=C2/SC(=S)NC2=O)C(C)(C)c2ccccc21,"inconclusive: 224 µM [inhibitor, partial curve, poor fit]"
15,CC1CN(c2nn3c(=O)c4ccccc4nc3c3ccccc23)CC(C)O1 (stereo not drawn),"inconclusive: 89.1 µM [inhibitor, partial curve, poor fit]"
16,COc1cc(C)cc2oc(=O)c(CC(=O)N3CCN(C(=O)C4COc5ccccc5O4)CC3)c(C)c12 (stereo not drawn),"inconclusive: 79.4 µM [inhibitor, single point]"
17,COc1ccc(C(=O)NCCc2c[nH]c3ccccc23)cc1[N+](=O)[O-],"inconclusive: 6.31 µM [inhibitor, single point]"
18,CCN(C=NC1=NN(c2cccc(C(F)(F)F)c2)CC1)CC,inactive
19,Nc1c(S(=O)(=O)c2cccs2)c2nc3ccccc3nc2n1Cc1cccs1,"inconclusive: 100 µM [inhibitor, partial curve, poor fit]"
20,CCC(CC)C(=O)c1c[nH]c(C(=O)NC2CCCCCC2)c1,"inconclusive: 25.1 µM [inhibitor, single point]"
21,Nc1ccc(-c2nc3ccccc3s2)cn1,"inconclusive: 398 µM [inhibitor, partial curve, poor fit]"
22,O=C(Cc1cc(=O)oc2cc(O)ccc12)NCC1CCC(C(=O)O)CC1 (stereo not drawn),"inconclusive: 89.1 µM [inhibitor, single point]"
23,Cc1cc(OCC(=O)OCC(=O)NCc2ccc3c(c2)OCO3)ccc1Cl,inactive
24,COc1ccc(C2CC(=O)Nc3n[nH]c(-c4ccccc4)c32)cc1OC (stereo not drawn),"inconclusive: 79.4 µM [inhibitor, single point]"
25,CCCC(=O)NC(=S)c1c(C)n(C)n(-c2ccccc2)c1=O,inactive

# 2 of these compounds, reformatted.
row | SMILES | Potency
7 | C=CCn1c(O)c(CN2CCCCC2)c(C)c(C#N)c1=O | inconclusive: 100 µM [inhibitor, single point]
22 | O=C(Cc1cc(=O)oc2cc(O)ccc12)NCC1CCC(C(=O)O)CC1 (stereo not drawn) | inconclusive: 89.1 µM [inhibitor, single point]

# Following part.

row,SMILES,Potency
1,O=C(NCC1(N2CCOCC2)CCCCC1)c1cccc(S(=O)(=O)N2CCc3ccccc3C2)c1,"inconclusive: 22.4 µM [inhibitor, single point]"
2,COC(=O)CCC(=O)NNC(=O)c1cccc(Cl)c1,"inconclusive: 25.1 µM [inhibitor, single point]"
3,COc1cc(C(=O)Nc2c(C(=O)O)[nH]c3ccccc23)cc(OC)c1OC,inactive
4,CC(=O)N1N=C(c2cccs2)CC1c1ccc(Br)cc1 (stereo not drawn),"inconclusive: 282 µM [inhibitor, partial curve, poor fit]"
5,Cn1c(SCC(=O)NC(c2ccccc2)c2ccccc2)nnc1-c1cccs1,inactive
6,Cc1ccc(NC(=O)CN(C)C(=O)Cn2ncc(Cl)c(Cl)c2=O)cc1,inactive
7,CCOc1cc(C2NN=C(c3ccccc3)S2)ccc1OCc1ccccc1Cl (stereo not drawn),inactive
8,CCOC(=O)Nc1ccc2nc(Sc3ccc(Cl)cc3)sc2c1,"inconclusive: 126 µM [inhibitor, partial curve, poor fit]"
9,COc1cc(CO)ccc1OCC(=O)Nc1ccc(Br)cc1,"inconclusive: 10 µM [inhibitor, single point]"
10,CC1CCN(C(=O)CCNS(=O)(=O)c2ccc(Cl)cc2)CC1,"inconclusive: 22.4 µM [inhibitor, single point]"
11,Fc1ccc2nc(Nc3nc4cc5c(cc4s3)OCCO5)sc2c1,"inconclusive: 17.8 µM [inhibitor, partial curve, poor fit]"
12,Cc1ccc(NC(=O)COc2cccc3ccccc23)c(O)c1,"inconclusive: 100 µM [inhibitor, single point]"
13,CCN(CC)S(=O)(=O)c1ccc(C(=O)OCCNC(=O)c2cccnc2)cc1,inactive
14,COc1cccc(C(=O)NCCn2ccc3ccccc32)c1,inactive
15,Cc1ccc(Nc2nc(Nc3ccc(C)cc3)nc(SC3=NCCS3)n2)cc1,inactive
16,O=C(NCCCc1ccccn1)C1CCC(=O)N(Cc2cccc(F)c2)C1 (stereo not drawn),inactive
17,COc1ccccc1N1CCN(C(=O)CNS(=O)(=O)c2ccc(Br)s2)CC1,"inconclusive: 89.1 µM [inhibitor, single point]"
18,O=c1oc2ccc(C#CC3(O)CCCCC3)cc2cc1-n1cc(C2(O)CCCCC2)nn1,"inconclusive: 10 µM [inhibitor, partial curve, poor fit]"
19,CCNC(=O)c1cc2ccccc2o1,inactive
20,O=C(C1CC1)N1CCc2cc(S(=O)(=O)NC3CCN(Cc4ccccc4)CC3)ccc21,"inconclusive: 89.1 µM [inhibitor, single point]"
21,O=C(NCc1cccnc1)c1ccc(-c2ccc(Cl)cc2)o1,"inconclusive: 17.8 µM [inhibitor, single point]"
22,O=S(=O)(Nc1ccccc1F)c1cccc(NC(=S)NCCN2CCOCC2)c1,"inconclusive: 20 µM [inhibitor, single point]"
23,CCc1ccc2c(c1)c(N=NC1=NC(=O)CS1)c(O)n2CC,inactive
24,CN(C)S(=O)(=O)c1ccc(NC(=S)NC(=O)c2cccs2)cc1,inactive
25,COc1ccc(-c2csc(NC(=O)CSc3nc(SC)ns3)n2)cc1,"inconclusive: 100 µM [inhibitor, partial curve, poor fit]"

row,SMILES,Potency
1,N#Cc1cc([N+](=O)[O-])ccc1N1CCN(c2ccccc2O)CC1,inactive
2,O=C(Nc1nc(-c2ccc(S(=O)(=O)N3CCCC3)cc2)cs1)c1cccs1,"inconclusive: 100 µM [inhibitor, partial curve, poor fit]"
3,CC(=O)c1ccc(N2CCN(C(=O)CCCn3c(=O)[nH]c4ccsc4c3=O)CC2)cc1,inactive
4,Cc1cccc(-c2csc(N3CCC(C(N)=O)CC3)n2)c1,inactive
5,CN=c1nc(-c2ccccc2)n(-c2ccccc2)s1,"inconclusive: 79.4 µM [inhibitor, single point]"
6,COc1ccc(Cl)cc1NC(=O)CSc1nnc(Cc2cccn2C)n1-c1ccc(F)cc1,inactive
7,CC(NC(=O)c1cc2cc(Br)ccc2oc1=N)c1ccccc1 (stereo not drawn),"inconclusive: 79.4 µM [inhibitor, single point]"
8,CC(NC(=O)c1cn(C)c2ccc(S(=O)(=O)N3CCCC3)cc2c1=O)c1ccccc1 (stereo not drawn),inactive
9,CCCN(C(=O)c1cc(Cl)nc2ccccc12)c1c(N)n(Cc2ccccc2)c(=O)[nH]c1=O,"inconclusive: 89.1 µM [inhibitor, single point]"
10,Cc1ccc2[nH]c3c(Cl)ncnc3c2c1,inactive
11,CCN(CC(=O)Nc1c(F)cccc1F)C(=O)c1ccc(COc2ccccc2)o1,"inconclusive: 10 µM [inhibitor, single point]"
12,Cc1ccccc1C(=O)NC1CCCN(Cc2ccccc2F)C1 (stereo not drawn),"inconclusive: 20 µM [inhibitor, single point]"
13,O=C(/C=C/c1cn(CC(O)CN2CCCCC2)c2ccccc12)c1ccccc1 (stereo not drawn),"inconclusive: 100 µM [inhibitor, partial curve, poor fit]"
14,Cn1cc(/C=C/c2cc[n+](C)cc2)c2cc(Cl)ccc21,"inconclusive: 79.4 µM [inhibitor, partial curve]"
15,Cc1nc(-c2ccccc2)sc1-c1ccn[nH]1,inactive
16,CC(C)Cc1nc2oc3c(NCC4CCCO4)ncnc3c2c2c1CCC2 (stereo not drawn),"inconclusive: 100 µM [inhibitor, single point]"
17,COc1ccc(S(=O)(=O)Nc2ccccc2C(=O)NCc2cccnc2)cc1,"inconclusive: 22.4 µM [inhibitor, single point]"
18,Cc1ccc(C(=O)N/N=C/c2ccc(N3CCOCC3)cc2)c(C)c1,inactive
19,O=C(OCc1ccccc1F)c1cc2ccccc2cc1O,inactive
20,Cc1ccc(C(=O)N/N=C\c2cc3c(cc2Br)OCO3)s1,inactive
21,CCC(C)(C)C(=O)O,"inconclusive: 50.1 µM [inhibitor, single point]"
22,O=C(NCc1ccc(F)cc1)c1cc(-c2ccncc2)nc2ccccc12,"inconclusive: 100 µM [inhibitor, single point]"
23,N#CCC(=O)Nc1ccc(C(=O)OCC(=O)c2ccc3c(c2)OCO3)cc1,active: 44.7 µM

# An excerpt of these results, with tabs:
row	SMILES	Potency
1	N#Cc1cc([N+](=O)[O-])ccc1N1CCN(c2ccccc2O)CC1	inactive
3	CC(=O)c1ccc(N2CCN(C(=O)CCCn3c(=O)[nH]c4ccsc4c3=O)CC2)cc1	inactive
4	Cc1cccc(-c2csc(N3CCC(C(N)=O)CC3)n2)c1	inactive
5	CN=c1nc(-c2ccccc2)n(-c2ccccc2)s1	inconclusive: 79.4 µM [inhibitor, single point]
6	COc1ccc(Cl)cc1NC(=O)CSc1nnc(Cc2cccn2C)n1-c1ccc(F)cc1	inactive
7	CC(NC(=O)c1cc2cc(Br)ccc2oc1=N)c1ccccc1 (stereo not drawn)	inconclusive: 79.4 µM [inhibitor, single point]
9	CCCN(C(=O)c1cc(Cl)nc2ccccc12)c1c(N)n(Cc2ccccc2)c(=O)[nH]c1=O	inconclusive: 89.1 µM [inhibitor, single point]
10	Cc1ccc2[nH]c3c(Cl)ncnc3c2c1	inactive
13	O=C(/C=C/c1cn(CC(O)CN2CCCCC2)c2ccccc12)c1ccccc1 (stereo not drawn)	inconclusive: 100 µM [inhibitor, partial curve, poor fit]
15	Cc1nc(-c2ccccc2)sc1-c1ccn[nH]1	inactive
16	CC(C)Cc1nc2oc3c(NCC4CCCO4)ncnc3c2c2c1CCC2 (stereo not drawn)	inconclusive: 100 µM [inhibitor, single point]
17	COc1ccc(S(=O)(=O)Nc2ccccc2C(=O)NCc2cccnc2)cc1	inconclusive: 22.4 µM [inhibitor, single point]
18	Cc1ccc(C(=O)N/N=C/c2ccc(N3CCOCC3)cc2)c(C)c1	inactive
19	O=C(OCc1ccccc1F)c1cc2ccccc2cc1O	inactive
20	Cc1ccc(C(=O)N/N=C\c2cc3c(cc2Br)OCO3)s1	inactive
21	CCC(C)(C)C(=O)O	inconclusive: 50.1 µM [inhibitor, single point]
23	N#CCC(=O)Nc1ccc(C(=O)OCC(=O)c2ccc3c(c2)OCO3)cc1	active: 44.7 µM
